Source: PubChem BioAssay AID1259254 (NCATS, 2017)

Purpose: 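Genome-wide screen for genes that prevent DNA re-replication in cancer cells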 (primary screen)
Cell system: human HCT116 colorectal cancer cells
Reagent: single siRNA against human genes
Time to read-out: 3 days
Measurement: 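Imaged Hoechst DNA stain sorts each cell into a cycle phase by DNA amount; per plate, G2 fraction set to 0% for non-targeting and 100% for GMNN siRNA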
Scale: G2 robust z-score and G2 cells, % of GMNN control: higher = more G2 cells, more excess DNA replication; raw share of cells in G2: higher = larger share of cells with G2 DNA content
Call rule: 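An siRNA counts as active if its G2 robust z-score lies at least 5 MADs above the screen median; here such calls match roughly 38% of GMNN control or more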
This is one part, drawn at random, of about 59,000 reagents. About 1,550 of them (2.6%) were called active. 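G2 share is only a proxy for re-replication; each gene was hit by three separate siRNAs, and active genes were retested.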 The raw values are shown without normalisation. No sequences are given here. Not stated in the record: the amount of reagent.

gene	PubChem SID	G2 robust z-score	G2 cells, % of GMNN control	raw share of cells in G2 (%)	call
SCAMP1-AS1 (SCAMP1 antisense RNA 1)	SID160734409	-0.459	-0.259	3.01	inactive
SCAMP1-AS1 (SCAMP1 antisense RNA 1)	SID160772113	0.619	7.32	6.74	inactive
SCAMP1-AS1 (SCAMP1 antisense RNA 1)	SID160772114	-0.138	2	3.96	inactive
RNASE7 (ribonuclease A family member 7)	SID160732029	0.625	7.36	6.86	inactive
RNASE7 (ribonuclease A family member 7)	SID160752532	0.624	7.36	8.49	inactive
RNASE7 (ribonuclease A family member 7)	SID160752533	4.65	35.6	18	inactive
ZNF683 (zinc finger protein 683)	SID160762517	-0.114	2.16	6.99	inactive
ZNF683 (zinc finger protein 683)	SID160762518	2.02	17.2	11	inactive
ZNF683 (zinc finger protein 683)	SID160762520	0.781	8.47	8.26	inactive
LOC646030 (leucine rich repeat containing 37B pseudogene)	SID160769768	1.53	13.7	8.96	inactive
LOC646030 (leucine rich repeat containing 37B pseudogene)	SID160769769	2.37	19.6	10.5	inactive
LOC646030 (leucine rich repeat containing 37B pseudogene)	SID160769771	2.41	19.9	9.37	inactive
LOC646030 (leucine rich repeat containing 37B pseudogene)	SID160769776	0.93	9.51	7.36	inactive
LOC646030 (leucine rich repeat containing 37B pseudogene)	SID160769777	2.95	23.8	12	inactive
LOC646030 (leucine rich repeat containing 37B pseudogene)	SID160769778	-0.509	-0.611	2.85	inactive
SCGB1B2P (secretoglobin family 1B member 2, pseudogene)	SID160725663	-0.0556	2.58	4.62	inactive
SCGB1B2P (secretoglobin family 1B member 2, pseudogene)	SID160725664	-0.801	-2.67	2.31	inactive
SCGB1B2P (secretoglobin family 1B member 2, pseudogene)	SID160733836	-1.02	-4.22	1.92	inactive
HLA-K (major histocompatibility complex, class I, K (pseudogene))	SID160726156	-0.256	1.17	3.12	inactive
HLA-K (major histocompatibility complex, class I, K (pseudogene))	SID160770451	0.924	9.47	7.45	inactive
HLA-K (major histocompatibility complex, class I, K (pseudogene))	SID160770452	2.05	17.4	9.59	inactive
DGCR6 (DiGeorge syndrome critical region gene 6)	SID160719726	-0.415	0.0508	5.15	inactive
DGCR6 (DiGeorge syndrome critical region gene 6)	SID160719727	1.01	10.1	7.9	inactive
DGCR6 (DiGeorge syndrome critical region gene 6)	SID160724125	-0.0926	2.32	4.17	inactive
AKR7A3 (aldo-keto reductase family 7 member A3)	SID160734250	-1.2	-5.5	1.98	inactive
AKR7A3 (aldo-keto reductase family 7 member A3)	SID160734260	-0.582	-1.13	5.92	inactive
AKR7A3 (aldo-keto reductase family 7 member A3)	SID160734269	0.107	3.72	5.4	inactive
FASN (fatty acid synthase)	SID160763991	-0.263	1.12	4.06	inactive
FASN (fatty acid synthase)	SID160764000	0.411	5.86	7.36	inactive
FASN (fatty acid synthase)	SID160764010	-0.939	-3.64	3.88	inactive
FDFT1 (farnesyl-diphosphate farnesyltransferase 1)	SID160717719	-0.208	1.5	4.19	inactive
FDFT1 (farnesyl-diphosphate farnesyltransferase 1)	SID160717824	2.02	17.2	11.5	inactive
FDFT1 (farnesyl-diphosphate farnesyltransferase 1)	SID160717926	-0.766	-2.43	4.34	inactive
PDE2A (phosphodiesterase 2A)	SID160776223	1.08	10.6	8.24	inactive
PDE2A (phosphodiesterase 2A)	SID160776234	-0.48	-0.411	3.37	inactive
PDE2A (phosphodiesterase 2A)	SID160776245	-0.328	0.658	4.5	inactive
IL12B (interleukin 12B)	SID160775769	1.18	11.3	8.33	inactive
IL12B (interleukin 12B)	SID160775771	-1.27	-5.94	2.89	inactive
IL12B (interleukin 12B)	SID160775772	-0.734	-2.19	4.85	inactive
ECH1 (enoyl-CoA hydratase 1)	SID160757842	6.67	49.9	21.4	active
ECH1 (enoyl-CoA hydratase 1)	SID160757853	0.461	6.21	7.63	inactive
ECH1 (enoyl-CoA hydratase 1)	SID160757864	0.00342	2.99	6.32	inactive
KRT31 (keratin 31)	SID160776433	-0.79	-2.59	4.1	inactive
KRT31 (keratin 31)	SID160776434	0.852	8.96	7.49	inactive
KRT31 (keratin 31)	SID160776435	-0.658	-1.66	5.05	inactive
TRNAU1AP (tRNA selenocysteine 1 associated protein 1)	SID160731477	-0.326	0.677	4.62	inactive
TRNAU1AP (tRNA selenocysteine 1 associated protein 1)	SID160742582	0.027	3.16	5.57	inactive
TRNAU1AP (tRNA selenocysteine 1 associated protein 1)	SID160742583	-1.46	-7.27	3.24	inactive
EFHB (EF-hand domain family member B)	SID160759145	-0.515	-0.655	2.87	inactive
EFHB (EF-hand domain family member B)	SID160759146	-0.306	0.813	3.45	inactive
EFHB (EF-hand domain family member B)	SID160759147	1.64	14.5	8.61	inactive
LTA4H (leukotriene A4 hydrolase)	SID160776750	2.26	18.9	12.1	inactive
LTA4H (leukotriene A4 hydrolase)	SID160776751	-1.22	-5.59	2.93	inactive
LTA4H (leukotriene A4 hydrolase)	SID160776752	-0.775	-2.48	2.98	inactive
CD151 (CD151 molecule (Raph blood group))	SID160723695	0.448	6.12	7.23	inactive
CD151 (CD151 molecule (Raph blood group))	SID160723696	0.645	7.5	6.68	inactive
CD151 (CD151 molecule (Raph blood group))	SID160739896	1.57	14	9.96	inactive
CELSR2 (cadherin EGF LAG seven-pass G-type receptor 2)	SID160758774	-0.444	-0.157	5.79	inactive
CELSR2 (cadherin EGF LAG seven-pass G-type receptor 2)	SID160758785	1.59	14.2	9.47	inactive
CELSR2 (cadherin EGF LAG seven-pass G-type receptor 2)	SID160758795	-0.556	-0.944	2.98	inactive
SDHAF3 (succinate dehydrogenase complex assembly factor 3)	SID160745484	-0.637	-1.51	3.75	inactive
SDHAF3 (succinate dehydrogenase complex assembly factor 3)	SID160745485	-0.488	-0.465	4.24	inactive
SDHAF3 (succinate dehydrogenase complex assembly factor 3)	SID160745486	-0.354	0.479	3.18	inactive
ETNPPL (ethanolamine-phosphate phospho-lyase)	SID160748070	0.252	4.74	5.95	inactive
ETNPPL (ethanolamine-phosphate phospho-lyase)	SID160748071	2.99	24	12.8	inactive
ETNPPL (ethanolamine-phosphate phospho-lyase)	SID160748072	-1.03	-4.3	3.87	inactive
OR5M10 (olfactory receptor family 5 subfamily M member 10)	SID160766421	1.25	11.8	7.81	inactive
OR5M10 (olfactory receptor family 5 subfamily M member 10)	SID160766422	3.57	28.1	15.6	inactive
OR5M10 (olfactory receptor family 5 subfamily M member 10)	SID160766423	2.07	17.6	12.2	inactive

An excerpt from above, showing only “raw share of cells in G2 (%)”.
DGCR6 (DiGeorge syndrome critical region gene 6) [SID160719726] = 5.15
DGCR6 (DiGeorge syndrome critical region gene 6) [SID160719727] = 7.9
DGCR6 (DiGeorge syndrome critical region gene 6) [SID160724125] = 4.17
AKR7A3 (aldo-keto reductase family 7 member A3) [SID160734250] = 1.98
AKR7A3 (aldo-keto reductase family 7 member A3) [SID160734260] = 5.92
AKR7A3 (aldo-keto reductase family 7 member A3) [SID160734269] = 5.4
FASN (fatty acid synthase) [SID160763991] = 4.06
FASN (fatty acid synthase) [SID160764000] = 7.36
FASN (fatty acid synthase) [SID160764010] = 3.88
FDFT1 (farnesyl-diphosphate farnesyltransferase 1) [SID160717719] = 4.19
FDFT1 (farnesyl-diphosphate farnesyltransferase 1) [SID160717824] = 11.5
